Experimental findings from PMC8305094 are described below.

Amino acid sequences for entries named in this document (tags omitted). A change or cut given only in a name is not applied to a line headed by its entry. Chains listed by the source or under a name are the forms on record and can include a tag or linker. Residues count along the entry.
UniProt Q15796: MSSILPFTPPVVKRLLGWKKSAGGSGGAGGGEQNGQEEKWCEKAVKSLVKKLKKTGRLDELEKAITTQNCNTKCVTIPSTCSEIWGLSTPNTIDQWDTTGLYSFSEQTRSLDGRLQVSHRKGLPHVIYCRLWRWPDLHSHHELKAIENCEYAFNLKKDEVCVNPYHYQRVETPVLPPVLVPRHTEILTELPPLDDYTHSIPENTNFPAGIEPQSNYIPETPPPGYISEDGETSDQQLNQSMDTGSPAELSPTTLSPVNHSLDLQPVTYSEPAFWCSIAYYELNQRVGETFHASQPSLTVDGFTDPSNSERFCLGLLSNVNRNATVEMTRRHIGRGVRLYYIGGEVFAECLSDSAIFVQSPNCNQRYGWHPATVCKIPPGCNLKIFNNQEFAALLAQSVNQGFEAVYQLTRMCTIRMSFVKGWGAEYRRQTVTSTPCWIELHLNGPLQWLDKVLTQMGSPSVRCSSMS
FLAG-tagged MH1, Smad2 (1-185): residues 1-185 of Q15796
UniProt O35613: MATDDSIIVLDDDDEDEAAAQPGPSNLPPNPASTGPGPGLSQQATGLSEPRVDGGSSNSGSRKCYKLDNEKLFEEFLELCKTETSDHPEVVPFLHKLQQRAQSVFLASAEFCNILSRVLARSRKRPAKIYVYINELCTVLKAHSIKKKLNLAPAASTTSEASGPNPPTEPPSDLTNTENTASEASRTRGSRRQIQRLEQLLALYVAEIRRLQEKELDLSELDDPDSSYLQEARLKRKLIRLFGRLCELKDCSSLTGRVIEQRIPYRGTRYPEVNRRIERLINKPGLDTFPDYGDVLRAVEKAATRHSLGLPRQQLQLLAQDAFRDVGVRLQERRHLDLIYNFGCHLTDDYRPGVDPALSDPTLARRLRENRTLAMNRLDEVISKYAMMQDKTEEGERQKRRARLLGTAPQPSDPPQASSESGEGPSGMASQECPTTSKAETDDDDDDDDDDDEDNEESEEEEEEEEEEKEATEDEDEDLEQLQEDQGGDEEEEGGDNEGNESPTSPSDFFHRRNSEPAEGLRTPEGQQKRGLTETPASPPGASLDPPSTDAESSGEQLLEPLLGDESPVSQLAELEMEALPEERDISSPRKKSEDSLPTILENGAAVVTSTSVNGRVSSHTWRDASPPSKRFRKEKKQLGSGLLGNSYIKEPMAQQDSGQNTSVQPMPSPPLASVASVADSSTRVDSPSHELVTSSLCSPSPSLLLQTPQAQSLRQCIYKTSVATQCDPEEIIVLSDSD
UniProt Q9UER7: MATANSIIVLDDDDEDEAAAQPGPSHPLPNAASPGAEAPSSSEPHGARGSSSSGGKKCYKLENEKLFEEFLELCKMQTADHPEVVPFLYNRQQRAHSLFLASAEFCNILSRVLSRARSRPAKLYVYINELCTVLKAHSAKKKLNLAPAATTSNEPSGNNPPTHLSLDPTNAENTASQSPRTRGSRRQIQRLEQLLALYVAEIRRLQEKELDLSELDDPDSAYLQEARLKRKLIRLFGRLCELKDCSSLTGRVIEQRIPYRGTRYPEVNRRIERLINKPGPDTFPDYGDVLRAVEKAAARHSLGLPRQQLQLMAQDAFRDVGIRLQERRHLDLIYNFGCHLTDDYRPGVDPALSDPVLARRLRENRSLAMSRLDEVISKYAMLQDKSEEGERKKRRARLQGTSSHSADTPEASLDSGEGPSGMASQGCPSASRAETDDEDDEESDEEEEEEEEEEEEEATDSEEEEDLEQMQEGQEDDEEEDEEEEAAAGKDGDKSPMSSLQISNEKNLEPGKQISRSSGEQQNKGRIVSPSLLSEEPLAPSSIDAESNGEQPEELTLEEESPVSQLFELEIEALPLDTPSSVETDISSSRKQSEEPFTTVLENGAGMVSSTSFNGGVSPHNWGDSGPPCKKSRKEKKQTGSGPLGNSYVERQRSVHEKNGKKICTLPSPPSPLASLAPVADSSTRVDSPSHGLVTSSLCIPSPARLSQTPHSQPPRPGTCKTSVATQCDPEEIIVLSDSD

These are yes or no findings as the source states them, for the method shown. Binding seen in cells or lysates may run through a third protein. Some binding calls cover weakened binding; strength is not graded here.

The target of test [1] is Flag-Smad2, in FL83B cells (UniProt Q15796). Nature of the test: co-IP; FL83B cells transfected with Flag-Smad2, with or without TGF-β; lysates precipitated with anti-Flag beads; blot with Daxx, p-Smad2 and Smad2 antibodies.
Test [2] has as its target FLAG-tagged MH1, Smad2 (1-185) (UniProt Q15796). Description: co-IP; HA-Daxx cotransfected with Flag-Smad2 or Flag-MH1 in HEK 293T cells; lysis buffer 50 mM Tris-Cl pH 7.5, 120 mM NaCl, 0.5% NP-40; precipitated with anti-FLAG beads or anti-HA antibody and protein A agarose; Western blot.
Test [3] addresses FLAG-tagged Smad2 (full-length, WT), in HEK 293T (UniProt Q15796). The test is described as above.

“endogenous Daxx of FL83B cells (from UniProt O35613 1-739)”: the binding result in test [1] was “binds”.
As for “HA-tagged Death-associated protein 6 (Daxx) (from UniProt Q9UER7 1-740)”, the binding result in test [2] and in test [3] was “binds” in each case.
